Our source for the binding values is article PMC8265170.

Sequences of proteins named here, by UniProt entry; tags and fusion partners are left off. Residues count along the entry.
UniProt Q15109, residues 23-404: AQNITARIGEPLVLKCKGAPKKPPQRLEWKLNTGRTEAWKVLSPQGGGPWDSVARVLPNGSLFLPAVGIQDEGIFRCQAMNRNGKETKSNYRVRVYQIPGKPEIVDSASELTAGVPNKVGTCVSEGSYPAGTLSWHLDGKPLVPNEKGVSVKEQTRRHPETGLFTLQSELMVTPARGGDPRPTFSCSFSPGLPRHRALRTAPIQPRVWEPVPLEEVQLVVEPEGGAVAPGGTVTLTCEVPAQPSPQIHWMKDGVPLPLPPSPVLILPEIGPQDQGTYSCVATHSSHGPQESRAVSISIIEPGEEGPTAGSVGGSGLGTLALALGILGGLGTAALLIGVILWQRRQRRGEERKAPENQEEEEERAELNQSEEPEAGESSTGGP

No constants are given. Whether binding was seen depends on the method and setting. Binding seen in cells or lysates may run through a third protein. Some results given as binding are weak or reduced against the parent protein; the word gives no strength.

For this assay, the target named is receptor for advanced glycation end-product (RAGE), overexpressed in HUVECs (UniProt Q15109). Description: co-IP; S100A7 protein incubated with RAGE-overexpressing HUVECs, then co-immunoprecipitation; only the binder purified.

B1: recombinant human S100A7 protein (ligand, UniProt P31151 1-101)
chain: MSNTQAERSIIGMIDMFHKYTRRDDKIEKPSLLTMMKENFPNFLSACDKKGTNYLADVFEKKDKNEDKKIDFSEFLSLLGDIATDYHKQSHGAAPCSGGSQ
As to B1, the binding result is “binds”.
